The values that follow come from PubChem BioAssay AID2685 (National Center for Advancing Translational Sciences (NCATS), 2010).

The assay in a line: qHTS Assay for Lipid Storage Modulators in Drosophila S3 Cells.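 On cell number change: cells counted by Cell Tracker Red CMTPX staining in the red channel.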 The following applies: BODIPY lipid droplet fluorescence, 18-24 h; for cell number change: measured here: cell count max response, cells fed with added oleic acid. Summed up: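 Laser-scanning cytometry quantifies lipid droplet accumulation (500–530 nm total intensity; droplet/cell object ratio) in oleic acid-fed (400 uM added) Drosophila S3 cells treated with a concentration series. 20 uM Triacsin C defined 100% inhibition.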

Where [1] appears, read: measured here: lipid fluorescence (Fed channel) AC50, cells fed with added oleic acid.
Where [2] appears, read: measured here: cell number channel AC50, cells fed with added oleic acid.

This is one part of the list. These are further read-outs of the screen, such as a control signal, another cell line or another target. No call is given for them. Compounds called inactive in the main read-out are mostly missing here. Words in brackets tell the shape of the fitted curve; partial curves, single points and poor fits give uncertain potencies.

With `O=C(O)C(Cc1c[nH]c2ccccc12)NS(=O)(=O)c1ccc(Br)cc1` (configuration not stated), the cell number change was -2.7%. In addition, the AC50 under setting [1] is 0.0259 µM [falling, full curve, poor fit].

Take `COc1ccccc1CNC(=O)CN(c1cccc([N+](=O)[O-])c1)S(C)(=O)=O`: the cell number change was -37.6%. Under setting [2], the concentration at half-maximal activity (AC50) is 2.06 µM [falling, partial curve, poor fit]. Also, under setting [1], the AC50 was 1.64 µM [falling, partial curve, poor fit].

Consider `CCCCOc1ccc(C(=O)N/C(=C\c2ccc([N+](=O)[O-])cc2)C(=O)OCc2ccco2)cc1`, for which the cell number change was found to be 14.8%. Moreover, the half-maximal activity concentration (AC50) under setting [1] is 0.164 µM [falling, full curve].

In the case of `Cc1[nH]c2c(Br)cccc2c1[C@H]1[C@@H](CC#N)C1(C)C`, the concentration at half-maximal activity (AC50) is 6.51 µM [rising, single point] under setting [2] and 6.51 µM [rising, single point] under setting [1].

In the case of `COc1cc(C(=O)Nc2c(C(=O)N3CCOCC3)oc3ccccc23)cc(OC)c1OC`, the cell number change came to 7.67%.

Take `COc1cc(C(=S)N2CCOCC2)ccc1OC(=O)c1ccccc1C`: the cell number change is -40.9%. For the same compound, the half-maximal activity concentration (AC50) under setting [2] was 10.3 µM [falling, partial curve, poor fit].

With `Cc1cc(NC(=O)CCC(=O)N(CC(=O)NC2CCCC2)c2ccc(F)c(Cl)c2)no1`, the cell number change is -24.8%. Besides, the concentration at half-maximal activity (AC50) under setting [1] was 0.206 µM [rising, single point].

For `CCCC(=O)Nc1nc2ccc(NC(=O)c3c(F)c(F)c(OC)c(F)c3F)cc2s1`, the cell number change is -32.9%.

As to `CNC(=S)NNC(=O)c1cccc(N(C)C)c1`, the cell number change is -16.5%. Besides, under setting [1], the AC50 is 0.1 µM [falling, full curve, poor fit].

Turning to `COc1ccc(C2CC(c3ccc(Br)cc3)Nc3nc(N)nn32)cc1` (configuration not stated), the cell number change came to 30.3%. In addition, the half-maximal activity concentration (AC50) under setting [2] was 1.64 µM [rising, partial curve, poor fit]. For the same compound, the AC50 under setting [1] was 29.1 µM [rising, partial curve, poor fit].

`O=C1NC(=O)/C(=C\c2ccccc2OCc2cccc([N+](=O)[O-])c2)N1`: the cell number change stood at 1.54%.

For `Cc1nnc(SCC(=O)NC(=O)NC(C)(C)C)s1`, the AC50 under setting [1] is 5.8 µM [falling, single point].

In the case of `O=[N+]([O-])c1ccccc1/C=N/N1CCN(c2ccc(Cl)cc2)CC1`, the cell number change was 9.41%.

With `COc1ccc(C(=O)/C=C/C(=O)N(Cc2ccc(F)cc2)C(C(=O)NC2CCCCC2)c2ccncc2)c(O)c1` (configuration not stated), the cell number change amounted to 7.56%. Also, under setting [1], the half-maximal activity concentration (AC50) is 1.3 µM [rising, full curve].

Take `O=C(NCc1nnc(SCC(=O)N2CCCC2)o1)c1ccccc1F`: the cell number change was 12.2%. Besides, the half-maximal activity concentration (AC50) under setting [1] was 6.51 µM [falling, single point].

Regarding `CCOC(=O)c1c(C)[nH]c(C)c1C(=O)COC(=O)/C=C/c1cccc(C(F)(F)F)c1`, the cell number change is -4.1%.

As for `Cc1c(Br)c(C(F)(F)F)nn1CC(=O)N(C)C1CCCCC1`, the cell number change was 5.13%. In addition, the concentration at half-maximal activity (AC50) under setting [1] was 29.1 µM [rising, single point].

For the compound `Cc1sc2ncnc(NCC(C)(C)N3CCOCC3)c2c1C`, the cell number change was -29.9%. Moreover, the half-maximal activity concentration (AC50) under setting [1] is 6.51 µM [rising, single point].

For `Cc1cc(Oc2cc(NN3CCCCC3)c([N+](=O)[O-])cc2[N+](=O)[O-])c(C(=O)c2ccccc2)cc1Cl`, the cell number change was -8.41%. The half-maximal activity concentration (AC50) under setting [1] is 20.6 µM [falling, single point].

In the case of `CCCCn1c(SCc2cccc([N+](=O)[O-])c2)nc2ccsc2c1=O`, the cell number change came out at 9.01%. Under setting [1], the AC50 is 4.11 µM [rising, full curve].

For the compound `COc1ccccc1C1NC(=O)NC(C)=C1C(=O)OC1CCC(C)CC1` (configuration not stated), the cell number change is -33.4%. In addition, under setting [2], the concentration at half-maximal activity (AC50) is 23.1 µM [falling, single point]. Moreover, the concentration at half-maximal activity (AC50) under setting [1] was 29.1 µM [falling, single point].

For `O=C(O)CCC(=O)N1N=C(c2ccc(Br)cc2)CC1c1ccc(Br)cc1` (configuration not stated), the cell number change is -3.38%. Besides, under setting [1], the AC50 is 0.164 µM [falling, full curve, poor fit].

In the case of `COC(=O)c1cc(OC)c(OC)cc1NC(=S)N1CCCCC1`, the cell number change came to 25.3%. For the same compound, under setting [2], the AC50 was 0.58 µM [rising, full curve, poor fit].

Consider `COc1cc(C(C)=O)ccc1OCC(=O)Nc1ccc2nc(C)sc2c1`, for which the cell number change is -31.9%. Further, under setting [2], the AC50 is 0.164 µM [falling, full curve]. Also, under setting [1], the concentration at half-maximal activity (AC50) is 0.116 µM [falling, full curve].

As for `CCN(CC)CCCNC(=O)c1c(O)c2cc(F)cc3c2n(c1=O)C(C)CC3` (configuration not stated), the cell number change is 57.4%. The AC50 under setting [2] was 29.1 µM [rising, single point].

Regarding `S=c1sc(SCCOc2ccccc2)nn1-c1ccccc1`, the cell number change amounted to 7.1%. Besides, under setting [1], the AC50 was 0.58 µM [rising, partial curve].

As to `O=C(O)c1cc(NC(=O)c2ccc3c(c2)C(=O)N(Cc2ccccc2)C3=O)cc(C(=O)O)c1`, the cell number change is -6.49%. The AC50 under setting [1] is 29.1 µM [rising, single point].

`O=C(Nc1ccccc1C(=O)O)c1cccc(S(=O)(=O)Nc2ccc(Br)cc2)c1`: the cell number change is -14.2%.

For `CCOC(=O)c1c(C)[nH]c(C)c1C(=O)CSc1nc(N)cc(=O)[nH]1`, the cell number change is -42.6%. Further, the AC50 under setting [2] is 25.9 µM [falling, single point]. Also, under setting [1], the AC50 is 29.1 µM [falling, single point].

On to `CCOc1ncccc1C(=O)OCc1ccc(C(=O)OC)cc1`, for which the cell number change turned out to be 9.79%.

In the case of `CC(C)Cn1c(SCC(=O)NC(=O)NC2CCCC2)nc2ccccc21`, the cell number change was -26.9%. Further, the half-maximal activity concentration (AC50) under setting [1] was 6.51 µM [rising, single point].

`COc1ccc(F)cc1S(=O)(=O)Nc1ccc(C)cc1`: the cell number change came to 27.9%. For the same compound, the concentration at half-maximal activity (AC50) under setting [1] was 1.84 µM [rising, partial curve, poor fit].

For `CCC1CN(C(=O)NCc2cccc(OC)c2)c2cc(Cl)ccc2O1` (configuration not stated), the cell number change is 19.1%. Moreover, the concentration at half-maximal activity (AC50) under setting [1] was 16.4 µM [rising, single point].

Turning to `Cc1ccccc1C(=O)c1cccn1CC(=O)NCc1ccc(Cl)cc1`, the cell number change worked out at 29.9%. Further, the half-maximal activity concentration (AC50) under setting [2] is 1.84 µM [rising, full curve, poor fit]. The half-maximal activity concentration (AC50) under setting [1] was 3.26 µM [rising, partial curve].

For `O=C(OCC(=O)c1ccc(Cl)cc1Cl)c1cnccn1`, the cell number change worked out at 30.2%. In addition, under setting [2], the AC50 is 0.0651 µM [rising, full curve, poor fit].

Consider `CC1CCCC(C)N1C(=O)Cn1c(SCC(=O)Nc2ccc3c(c2)OCO3)nc2ccccc21` (configuration not stated), for which the cell number change was found to be 3.82%. Moreover, the AC50 under setting [2] is 0.461 µM [rising, single point].

As for `CCC(c1nnnn1Cc1ccco1)N(Cc1cc2cc(C)cc(C)c2[nH]c1=O)CC1CCCO1` (configuration not stated), the cell number change worked out at 2.65%. The AC50 under setting [1] is 1.84 µM [rising, partial curve].
